The assay has as its target T1, myc-Tcf7l1 (Xenopus laevis Tcf7l1), expressed in HEK293FT cells (Xenopus laevis) (UniProt Q90ZB6).
T1 sequence: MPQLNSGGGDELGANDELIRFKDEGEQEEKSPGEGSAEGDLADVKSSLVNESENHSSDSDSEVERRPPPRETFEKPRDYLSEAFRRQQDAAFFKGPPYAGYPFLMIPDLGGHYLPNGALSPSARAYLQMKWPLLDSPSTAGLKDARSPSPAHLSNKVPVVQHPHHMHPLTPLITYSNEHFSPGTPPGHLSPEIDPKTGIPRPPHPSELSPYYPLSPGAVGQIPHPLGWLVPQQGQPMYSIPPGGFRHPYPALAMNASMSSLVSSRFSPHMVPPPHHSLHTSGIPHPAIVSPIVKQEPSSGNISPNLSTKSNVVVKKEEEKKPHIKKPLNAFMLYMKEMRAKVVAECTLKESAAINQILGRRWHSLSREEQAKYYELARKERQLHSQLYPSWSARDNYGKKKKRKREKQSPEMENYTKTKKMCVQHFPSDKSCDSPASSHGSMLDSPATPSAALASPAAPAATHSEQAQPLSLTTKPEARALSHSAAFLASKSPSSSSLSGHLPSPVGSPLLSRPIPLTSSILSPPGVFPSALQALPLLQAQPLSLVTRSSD
Briefly: co-IP; HEK293FT cells transfected 48 h; lysates in IP buffer (2 mM Tris-Cl pH 7.5, 2 mM EDTA, 150 mM NaCl, 1% Triton X-100); precipitated with anti-myc antibody and Protein G-sepharose at 4 °C; immunoblot. Background: A western blot detects proteins with antibodies after separation by electrophoresis.

No constants are given. Whether binding was seen depends on the method and setting. In cells and extracts the contact can be indirect. Tags and fused reporters may be left off the sequences shown.

“Uch37 (ubiquitin C-terminal hydrolase 37), as in the co-IP of Fig. 2a (from UniProt Q9Y5K5-1 1-329) (enzyme)”: the binding entry is “no binding”.

The values above are taken from paper PMC5309806.
